Record: PubChem BioAssay AID1508597 (Cure First, 2020)
This is a random part of the about 2,100 reagents, under one of the conditions tested. 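Calls flag viability under 80% in either arm, not effects specific to rucaparib; the reference for percent is not stated.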 A number with no mark means an inactive call. Some reagents were tested in more than one well and are listed for each. Not stated in the record: the 100% reference.

- Aim: 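Knock-downs altering ovarian cancer cell survival with or without PARP inhibitor rucaparib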 (primary screen)
- System: human ovarian carcinoma lines grown from tumours: OCI-P5x (papillary serous) and OCI-C5x (clear cell)
- Reagent: siRNA pool against human genes, 1.25 pmol siRNA per well
- Duration: 72 h or 96 h, depending on the cell culture
- Conditions: rucaparib 20 µM (about IC30) or vehicle, present until read-out
- Rucaparib or vehicle: Rucaparib
- Cell line: OCI-P5x (serous)
- Measurement: 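ATP luminescence measured at 72 or 96 h according to the culture, then normalised and expressed as percent viability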
- Direction: viability, normalised: higher = more viable cells remaining
- Hit rule: 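Active when normalised viability falls below 80 percent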
- Meaning of the calls: active = viability under 80%; inactive = viability 80% or more

no.	Target gene	technical replicate	viability, normalised (%)
1	PCDHB14 (protocadherin beta 14)	1	23.1 (active)
2	PCDHB14 (protocadherin beta 14)	2	29.6 (active)
3	PCDHB14 (protocadherin beta 14)	3	28 (active)
4	USP22 (ubiquitin specific peptidase 22)	1	63.4 (active)
5	USP22 (ubiquitin specific peptidase 22)	2	57 (active)
6	USP22 (ubiquitin specific peptidase 22)	3	57.8 (active)
7	YEATS4 (YEATS domain containing 4)	1	46.8 (active)
8	YEATS4 (YEATS domain containing 4)	2	54.7 (active)
9	YEATS4 (YEATS domain containing 4)	3	55.7 (active)
10	POLB (DNA polymerase beta)	1	48.3 (active)
11	POLB (DNA polymerase beta)	2	49.3 (active)
12	POLB (DNA polymerase beta)	3	61.6 (active)
13	MED18 (mediator complex subunit 18)	1	59.6 (active)
14	MED18 (mediator complex subunit 18)	2	45.9 (active)
15	MED18 (mediator complex subunit 18)	3	57.5 (active)
16	AGO4 (argonaute RISC component 4)	1	63.1 (active)
17	AGO4 (argonaute RISC component 4)	2	45.5 (active)
18	AGO4 (argonaute RISC component 4)	3	44.8 (active)
19	HASPIN (histone H3 associated protein kinase)	1	59.2 (active)
20	HASPIN (histone H3 associated protein kinase)	1	55.2 (active)
21	HASPIN (histone H3 associated protein kinase)	1	68.6 (active)
22	HASPIN (histone H3 associated protein kinase)	2	66.8 (active)
23	HASPIN (histone H3 associated protein kinase)	2	59.6 (active)
24	HASPIN (histone H3 associated protein kinase)	2	64.4 (active)
25	HASPIN (histone H3 associated protein kinase)	3	71.9 (active)
26	HASPIN (histone H3 associated protein kinase)	3	77.1 (active)
27	HASPIN (histone H3 associated protein kinase)	3	74.2 (active)
28	EPHA4 (EPH receptor A4)	1	112
29	EPHA4 (EPH receptor A4)	2	117
30	EPHA4 (EPH receptor A4)	3	102
31	KDR (kinase insert domain receptor)	1	106
32	KDR (kinase insert domain receptor)	2	57.8 (active)
33	KDR (kinase insert domain receptor)	3	93.3
34	PLCZ1 (phospholipase C zeta 1)	1	58.6 (active)
35	PLCZ1 (phospholipase C zeta 1)	2	57.3 (active)
36	PLCZ1 (phospholipase C zeta 1)	3	42.6 (active)
37	DYRK3 (dual specificity tyrosine phosphorylation regulated kinase 3)	1	97.5
38	DYRK3 (dual specificity tyrosine phosphorylation regulated kinase 3)	2	77.3 (active)
39	DYRK3 (dual specificity tyrosine phosphorylation regulated kinase 3)	3	91.8
40	NIPBL (NIPBL cohesin loading factor)	1	54 (active)
41	NIPBL (NIPBL cohesin loading factor)	2	58.7 (active)
42	NIPBL (NIPBL cohesin loading factor)	3	61.3 (active)
43	CXXC5 (CXXC finger protein 5)	1	80.4
44	CXXC5 (CXXC finger protein 5)	2	86.1
45	CXXC5 (CXXC finger protein 5)	3	79.9 (active)
46	MATK (megakaryocyte-associated tyrosine kinase)	1	110
47	MATK (megakaryocyte-associated tyrosine kinase)	1	111
48	MATK (megakaryocyte-associated tyrosine kinase)	2	44.2 (active)
49	MATK (megakaryocyte-associated tyrosine kinase)	2	82
50	MATK (megakaryocyte-associated tyrosine kinase)	3	105
51	MATK (megakaryocyte-associated tyrosine kinase)	3	96.7
52	BRD7 (bromodomain containing 7)	1	71.2 (active)
53	BRD7 (bromodomain containing 7)	2	83.2
54	BRD7 (bromodomain containing 7)	3	81.5
55	PDP1 (pyruvate dehydrogenase phosphatase catalytic subunit 1)	1	83.3
56	PDP1 (pyruvate dehydrogenase phosphatase catalytic subunit 1)	2	76.1 (active)
57	PDP1 (pyruvate dehydrogenase phosphatase catalytic subunit 1)	3	74.9 (active)
